Several values for one entry are separate records, joined by “and”; a condition that tells them apart may be missing. Equal entries are not always repeated. About 7,500 (2.1%) of roughly 360,000 compounds were called active. The shares of active, inactive and inconclusive entries below differ from those in the screen. Calls come from the whole dose curve; as a rule, active = well fitted inhibition curve with a large enough effect; inconclusive = small, poorly fitted or top-dose-only effect, or effect the other way; inactive = flat fitted curve, though single readings scatter. A potency beside an inconclusive call is a rough fit, not a confirmed value.
assay: Nrf2 qHTS screen for inhibitors; conditions: A549 ARE-Fluc reporter, luciferase luminescence, 18-24 h; activity change, negative = inhibition: at 46 µM (top of the series); note: nearly all actives have a fitted effect of over 60% in size
In short: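 Nrf2 activity is the BugLite luminescence, read 15 min after reagent at room temperature, following CellTiter-Fluor cytotoxicity readout (30 min, 37C). Compound titrations were applied for 18-24 h to 5000 A549 ARE_Fluc cells/well in 5% FBS OPTI-MEM.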
% is set by controls: 0 for no effect and ±100 for the full control effect; potency is the fitted concentration of half-maximal effect.

| SMILES | Potency | activity change, negative = inhibition |
| --- | --- | --- |
| C[C@@]12C(=O)Nc3cc(F)ccc3C(=O)N1[C@H]1c3cc(Br)ccc3OC[C@@H]1[C@@H]2c1ccccc1 | inconclusive: 25.9 µM [falling, single point] | – |
| CCOC(=O)c1csc(NC(=O)CSc2nnnn2-c2ccc(OC)cc2)n1 | inconclusive: 20.6 µM [falling, single point] | – |
| O=C(Nc1ccccc1)c1ccc(S(=O)(=O)Nc2cccc(O)c2)cc1 | inconclusive: 18.4 µM [falling, single point] | – |
| O=c1oc2c(F)cc(F)cc2cc1S(=O)(=O)c1ccc(F)cc1 | – | inactive: -9.62% |
| Cc1ccc(C(=O)Nc2cccc(C(=O)N/N=C/c3ccc(F)cc3)c2)cc1 | inconclusive: 3.66 µM [activator, full curve] | – |
| CCN(CC)CC(O)c1ccc2ccc3ccc(O)cc3c2c1 (centres undefined) | inconclusive: 29.1 µM [falling, partial curve, poor fit] | – |
| c1ccc2sc(Nc3nc4cc5c(cc4s3)OCO5)nc2c1 | inconclusive: 14.6 µM [activator, partial curve] | – |
| COC(=O)c1ccccc1NC(=O)CCCn1nc(C)c2sc3ccccc3c2c1=O | inconclusive: 14.6 µM [falling, partial curve, poor fit] | – |
| CCCCNc1c(-c2ccc(OC)c(SC3CCCCC3)c2)nc2ccc(Cl)cn12 | – | inactive: -10.7% |
| CCCCCCCCCCCCCCCCCCNc1ccn(C2OC(COP(=O)(O)OCC3OC(n4cc(F)c(=O)[nH]c4=O)CC3O)C(O)C2O)c(=O)n1 (centres undefined) | inconclusive: 11.6 µM [falling, partial curve] | – |
| O=C1C2C(c3ccccc3)CC=CC2C(c2cccc(Br)c2)N1Cc1ccccc1 (centres undefined) | inconclusive: 16.4 µM [falling, partial curve, poor fit] | – |
| C=C[C@@H](C)N(Cc1ccc(OC)cc1)S(=O)(=O)N(Cc1ccccc1)[C@H](C=C)C(C)C | – | inactive: -11.4% |
| CN(C)/N=C/C=C1\CCC/C(=C/c2cccs2)C1=O | inconclusive: 32.6 µM [activator, single point] | – |
| COc1ccc(-c2nnn3c2nc(NCc2ccccc2)c2ccccc23)cc1 | inconclusive: 11.6 µM [activator, partial curve] and inconclusive: 29.1 µM [activator, partial curve, poor fit] | – |
| CCN(CC)C(=O)CCCC(=O)N(CC)CC | inconclusive: 3.26 µM [activator, full curve, poor fit] | – |
| CC(C)Nc1nc(NC(N)=S)nc(NC(C)(C)C)n1 | – | inactive: -15% |
| CCCC[C@@H]1CNC(=S)N1CCC12CC3CC(CC(C3)C1)C2 | – | inactive: -9.25% |
| O=C1[C@H]2[C@@H](c3ccc(F)cc3)N3C(=O)N(c4ccccc4)C(=O)[C@@]3(Cc3ccc(Cl)cc3)[C@H]2C(=O)N1C1CCCCC1 | inconclusive: 10.3 µM [activator, partial curve, poor fit] | – |
| CC(C)CNC(=S)NNC(=O)c1csc2c1CCCC2 | inconclusive: 20.6 µM [falling, partial curve, poor fit] | – |
| CC(=O)N1CCC(N(CCN2CCOCC2)C(=S)Nc2ccc(C)c(C)c2)CC1 | inconclusive: 6.51 µM [activator, full curve, poor fit] | – |
| O=C(CSc1ccccn1)c1ccc(F)cc1 | inconclusive: 29.1 µM [activator, single point] | – |
| CN1CCN(NC(=O)c2ccc(Br)c(S(=O)(=O)N3CCOCC3)c2)CC1 | – | inactive: 8.31% |

| SMILES | Potency | activity change, negative = inhibition |
| --- | --- | --- |
| CCC(C)(C)NC(=O)c1cc(S(=O)(=O)N2CCCCC2)ccc1N1CCOCC1 | inconclusive: 6.51 µM [falling, partial curve, poor fit] | – |
| COc1cccc(CN(C)C(=O)c2[nH]c(C)c(C(C)=O)c2C)c1OC | active: 23.1 µM | – |
| COc1ccc(C2=CC(c3cc(OC)c(OC)c(OC)c3)NC(=S)N2)cc1 (centres undefined) | inconclusive: 9.2 µM [falling, partial curve, poor fit] | – |
| Cc1cccc(NC(=O)C(=O)NCC(c2cccnc2)N2CCc3ccccc32)c1C (centres undefined) | – | inactive: 24% |
| COc1cc(C)ccc1OCCSc1nc2ccc(NC(=O)c3ccc4c(c3)OCO4)cc2s1 | – | inactive: -5.48% |
| Cc1nn(Cc2ccc(C(=O)Nc3ccc(C(=O)OC(C)C)cc3)o2)c(C)c1Cl | inconclusive: 20.6 µM [falling, partial curve, poor fit] | – |
| Cc1cc(C)nc(SCC(=O)Nc2cc(C)on2)n1 | inconclusive: 6.51 µM [falling, single point] | – |
| Cc1cccc(-n2c(O)c(C=Nc3ccccc3-c3n[nH]c(=S)[nH]c3=O)c3ccccc3c2=O)n1 | inconclusive: 32.6 µM [falling, single point] | – |
| COc1ccccc1N1CCN(C2=Nc3cccc4cccc2c34)CC1 | inconclusive: 2.31 µM [activator, partial curve] | – |
| Cc1cc(NC(=O)CN(C)S(=O)(=O)c2ccc3c(c2)CCCC(=O)N3)ccc1Br | active: 20.6 µM | – |
| O=C(COC(=O)c1ccccc1Nc1ccc(SC(F)F)cc1)NC1CC1 | inconclusive: 16.4 µM [activator, single point] | – |
| CC(C)N(C(=O)N1CCN(c2ccnc3cc(Cl)ccc23)CC1)C(C)C | active: 9.2 µM | – |
| CCc1ccc(NC(=O)Cn2c(=O)n(CCCC(=O)NCc3ccccc3OC)c(=O)c3ccccc32)cc1 | – | inactive: 2.98% |
| Cc1ccc(-c2cc(C(=O)N3CCN(c4ncccn4)CC3)c3ccccc3n2)cc1 | inconclusive: 29.1 µM [falling, single point] | – |
| N#Cc1c(NCCN)nc(-c2ccco2)c2c1CCCC2 | inconclusive: 29.1 µM [falling, single point] | – |
| NC(=O)c1ccsc1NC(=O)COC(=O)Cc1c[nH]c2ccccc12 | inconclusive: 23.1 µM [falling, single point] | – |
| CCOC(=O)N1CCC(N2CC34C=CC(O3)C(C(=O)Nc3ccc(F)cc3)C4C2=O)CC1 (centres undefined) | inconclusive: 0.82 µM [falling, full curve, poor fit] | – |
| Cc1ccccc1C(=O)N1CCN(CCNC(=O)C(=O)Nc2ccc(Br)cc2)CC1 | inconclusive: 18.4 µM [falling, partial curve, poor fit] | – |
| CCc1cccc(CC)c1NC(=O)CCS(=O)(=O)c1ccc(Br)cc1 | – | inactive: -20.1% |
| Cc1cc(C)n(CCc2nc(-c3ccc(C(C)(C)C)cc3)cs2)n1 | inconclusive: 20.6 µM [falling, single point] | – |
| Cc1ccc(-n2c(=O)c3sccc3n(CC(=O)NCC3CCCO3)c2=O)cc1F (centres undefined) | inconclusive: 29.1 µM [activator, single point] | – |
| C=CCn1c(=N)n(CC(=O)OCC)c2ccccc21 | – | inactive: -5.62% |

Whole records from above.
`CCC(C)(C)NC(=O)c1cc(S(=O)(=O)N2CCCCC2)ccc1N1CCOCC1` is entered as Potency: inconclusive: 6.51 µM [falling, partial curve, poor fit]
`Cc1nn(Cc2ccc(C(=O)Nc3ccc(C(=O)OC(C)C)cc3)o2)c(C)c1Cl` is entered as Potency: inconclusive: 20.6 µM [falling, partial curve, poor fit]
`CCc1ccc(NC(=O)Cn2c(=O)n(CCCC(=O)NCc3ccccc3OC)c(=O)c3ccccc32)cc1` is entered as activity change, negative = inhibition: inactive: 2.98%
`CCOC(=O)N1CCC(N2CC34C=CC(O3)C(C(=O)Nc3ccc(F)cc3)C4C2=O)CC1` (centres undefined) is entered as Potency: inconclusive: 0.82 µM [falling, full curve, poor fit]

(next part)

| SMILES | Potency | activity change, negative = inhibition |
| --- | --- | --- |
| COc1ccc(-c2nc(N/N=C(\C)c3ccc(O)cc3)c3ccccc3n2)cc1 | inconclusive: 29.1 µM [falling, single point] | – |
| CCOC(=O)c1csc(NC(=O)C2=COCCO2)n1 | inconclusive: 1.46 µM [activator, full curve, poor fit] | – |
| O=C(CN(Cc1ccccc1)S(=O)(=O)c1ccc(Br)cc1)NCc1ccco1 | inconclusive: 7.31 µM [falling, partial curve, poor fit] | – |
| O=C(CCc1ccncc1)NC1CCCc2c1cnn2-c1ccc(F)cc1F (centres undefined) | active: 8.2 µM | – |
| Cc1ccc(S(=O)(=O)c2nc(-c3cccs3)oc2SC(C)c2ccccc2)cc1 (centres undefined) | – | inactive: -3.04% [at 9.27 µM] |
| COC(=O)c1cc2cc(Cl)ccc2nc1SC | inconclusive: 16.4 µM [falling, single point] | – |
| Cn1cncc1C#Cc1c(-c2ccsc2)sc2ccccc12 | inconclusive: 32.6 µM [falling, partial curve, poor fit] | – |
| Cc1ccc(OC/C(O)=C(\C#N)c2nc3ccccc3s2)cc1 | inconclusive: 32.6 µM [falling, partial curve, poor fit] | – |
| CCOC(=O)c1sc(NC(=O)c2ccccc2)cc1C | – | inactive: -12% |
| O=C(N/C(=C/c1ccc([N+](=O)[O-])cc1)C(=O)N1CCOCC1)c1ccco1 | inconclusive: 25.9 µM [activator, single point] | – |
| O=C(N/N=C/c1cnc(N2CCCCC2)s1)c1ccc(C(F)(F)F)cc1 | inconclusive: 29.1 µM [falling, single point] | – |
| O=[N+]([O-])c1ccc(Cl)c(S(=O)(=O)Nc2cccc(-c3ccc(N4CCOCC4)nn3)c2)c1 | inconclusive: 5.8 µM [activator, partial curve, poor fit] | – |
| CC(C)c1ccc(NC(=O)C2CCN(c3ncnc4c3nc3n4CCCCC3)CC2)cc1 | inconclusive: 29.1 µM [falling, single point] | – |
| CCCOC(=O)c1ccc(Cl)c(NC(=O)c2ccc(-c3ccccc3)cc2)c1 | inconclusive: 6.51 µM [activator, single point] | – |
| CCOC(=O)c1c(-c2ccccc2)oc2ccc(NS(=O)(=O)c3ccccc3)cc12 | inconclusive: 18.4 µM [falling, single point] | – |
| CCN(C(=O)CSc1nnc(C)n2c1cc1occc12)c1ccccc1 | inconclusive: 20.6 µM [falling, single point] | – |
| O=C(CCc1ccccc1)Nc1nc2n(n1)C(c1ccccc1)CC(=O)N2 (centres undefined) | – | inactive: -5.08% |
| O=C(c1c(Cl)nc2sccn12)N1CCN(c2cccc(Cl)c2)CC1 | inconclusive: 4.11 µM [falling, partial curve] | – |
| CCn1c(SCc2ccccc2Cl)nc2nc3c(cc2c1=O)CCCC3 | inconclusive: 29.1 µM [falling, single point] | – |
| CS(=O)(=O)c1nc(S(=O)(=O)c2ccc(Cl)cc2)c(N2CCC3(CC2)OCCO3)s1 | inconclusive: 20.6 µM [falling, partial curve] | – |

Reference: PubChem BioAssay AID504444 (National Center for Advancing Translational Sciences (NCATS), 2011)
